Sequences and labels used below:
T1: Cul5 with a C terminal HA-tag (mouse), Q9D5V5
T1 chain: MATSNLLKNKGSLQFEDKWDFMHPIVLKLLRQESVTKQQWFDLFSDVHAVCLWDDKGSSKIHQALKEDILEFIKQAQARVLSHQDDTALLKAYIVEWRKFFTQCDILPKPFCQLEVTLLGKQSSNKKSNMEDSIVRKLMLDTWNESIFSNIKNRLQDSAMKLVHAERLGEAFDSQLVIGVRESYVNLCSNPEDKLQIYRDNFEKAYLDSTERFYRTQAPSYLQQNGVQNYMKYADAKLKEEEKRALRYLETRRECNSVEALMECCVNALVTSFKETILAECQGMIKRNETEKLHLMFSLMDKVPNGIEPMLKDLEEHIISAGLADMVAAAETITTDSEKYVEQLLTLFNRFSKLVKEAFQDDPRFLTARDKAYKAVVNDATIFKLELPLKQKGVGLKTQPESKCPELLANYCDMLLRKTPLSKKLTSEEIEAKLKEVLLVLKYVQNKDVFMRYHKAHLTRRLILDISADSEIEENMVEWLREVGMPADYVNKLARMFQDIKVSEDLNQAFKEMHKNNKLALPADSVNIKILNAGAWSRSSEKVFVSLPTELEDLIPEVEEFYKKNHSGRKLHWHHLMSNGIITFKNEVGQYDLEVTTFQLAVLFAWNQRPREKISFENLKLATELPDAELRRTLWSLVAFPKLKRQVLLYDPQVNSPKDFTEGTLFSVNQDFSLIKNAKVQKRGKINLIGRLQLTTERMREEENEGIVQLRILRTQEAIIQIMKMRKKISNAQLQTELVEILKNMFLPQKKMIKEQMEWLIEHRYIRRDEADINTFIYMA

Protein sequences, listed by entry. Tags and fused reporters are not part of them. Residues count along the entry.
UniProt P31041, residues 20-218: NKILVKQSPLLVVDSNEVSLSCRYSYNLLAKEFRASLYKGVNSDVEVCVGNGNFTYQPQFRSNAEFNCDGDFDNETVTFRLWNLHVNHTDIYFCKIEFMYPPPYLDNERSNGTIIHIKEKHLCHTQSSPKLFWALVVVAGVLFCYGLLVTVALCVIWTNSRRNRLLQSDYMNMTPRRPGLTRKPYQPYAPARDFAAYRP
UniProt Q8BHD8: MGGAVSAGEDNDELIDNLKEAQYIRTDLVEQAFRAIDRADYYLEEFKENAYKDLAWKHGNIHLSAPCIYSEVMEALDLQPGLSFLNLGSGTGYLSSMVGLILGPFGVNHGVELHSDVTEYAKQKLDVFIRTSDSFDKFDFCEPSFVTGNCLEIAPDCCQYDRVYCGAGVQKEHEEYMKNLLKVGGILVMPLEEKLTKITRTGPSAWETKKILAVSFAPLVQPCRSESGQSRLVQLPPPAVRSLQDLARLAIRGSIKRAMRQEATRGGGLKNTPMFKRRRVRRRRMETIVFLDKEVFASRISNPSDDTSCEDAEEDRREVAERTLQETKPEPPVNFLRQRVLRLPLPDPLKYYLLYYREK
UniProt Q9CQW9: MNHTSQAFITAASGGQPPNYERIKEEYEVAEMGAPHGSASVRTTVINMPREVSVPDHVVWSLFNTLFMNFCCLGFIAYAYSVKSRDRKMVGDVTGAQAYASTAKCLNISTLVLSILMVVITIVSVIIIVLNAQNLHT

B1: IL2 receptor β subunit (Il2rb) (receptor, UniProt P16297 27-539)
chain: AVKNCSHLECFYNSRANVSCMWSHEEALNVTTCHVHAKSNLRHWNKTCELTLVRQASWACNLILGSFPESQSLTSVDLLDINVVCWEEKGWRRVKTCDFHPFDNLRLVAPHSLQVLHIDTQRCNISWKVSQVSHYIEPYLEFEARRRLLGHSWEDASVLSLKQRQQWLFLEMLIPSTSYEVQVRVKAQRNNTGTWSPWSQPLTFRTRPADPMKEILPMSWLRYLLLVLGCFSGFFSCVYILVKCRYLGPWLKTVLKCHIPDPSEFFSQLSSQHGGDLQKWLSSPVPLSFFSPSGPAPEISPLEVLDGDSKAVQLLLLQKDSAPLPSPSGHSQASCFTNQGYFFFHLPNALEIESCQVYFTYDPCVEEEVEEDGSRLPEGSPHPPLLPLAGEQDDYCAFPPRDDLLLFSPSLSTPNTAYGGSRAPEERSPLSLHEGLPSLASRDLMGLQRPLERMPEGDGEGLSANSSGEQASVPEGNLHGQDQDRGQGPILTLNTDAYLSLQELQAQDSVHLI
B2: Skap1 (protein, UniProt Q3UUV5 1-355)
chain: MQAVALPEEICWLLEDTEDFLAEGLQNENLSPGAQDQRAHILRGFQQIKSRYCWDFQPQGGDLGQDGSDDNLSGTHGPPLTSEASFWSDYQDEGIEDILRGAQELDSVIKQGYLEKKSKDHSFFGSEWQKRWCVISRGLFLYYANEKSKQPKGTFLIKGYSVRMAPHLRKDSKKESCFELISQDRRSYEFTASSPAEARDWVDQISFLLKDLSSLTIPFEEEEEEEEEEEKEEEEMYNDVDGFDSPRSGSQCRAMALPEPTEKEEDIYEVLPDDDDLEEDTCGAHRRRVDYADYYQGLWDCHGDQPDELSFQRGDLIRILSKEYNMYGWWVGELNSVIGIVPKDYLTTAFEMEGI
B3: Cish, Q62225 1-257 (protein)
chain: MVLCVQGSCPLLAVEQIGRRPLWAQSLELPGPAMQPLPTGAFPEEVTEETPVQAENEPKVLDPEGDLLCIAKTFSYLRESGWYWGSITASEARQHLQKMPEGTFLVRDSTHPSYLFTLSVKTTRGPTNVRIEYADSSFRLDSNCLSRPRILAFPDVVSLVQHYVASCAADTRSDSPDPAPTPALPMSKQDAPSDSVLPIPVATAVHLKLVQPFVRRSSARSLQHLCRLVINRLVADVDCLPLPRRMADYLRQYPFQL
B4: Asb6, Q91ZU1 1-418 (protein)
chain: MPFLHGFRRIIFEYQPLVDAILGALGIQDLERQEPLDDSASSEESRILVLTELLEQKAHSPFYQEGVSNALLKMAELGLTRAAAVLLQSGANLNFEDPVTYYTALHIAVLRNQPDMVELLVRHGADINRRDRIHESSPLDLASEEPERLPCLQRLLDLGADVNAADKNGKTALLHALASSDGVQIHNTENIRLLLEGGADVKATTKDGDTVFTCIIFLLGETVCGDKEEAPMINRFCFQVTQLLLAHGADPSECPAHESLTHICLKSFKLHFPLLCFLLESGAAYNCSLHGASCWSGFNLVFERLCSHPGCAEDDSHIELLHKAETVLDLMVTSSQRLQLPENLNIHPVGSLAGKIQALHASLRQLESYPPPLKHLCRVSIRLCLRPWPVDTKVKALPLPDRLKWYLLSAHSDTQDTC

Results are given in words; binding and its absence hold for the method and conditions named. Binding seen in cells or lysates may run through a third protein. A yes stands for co-enrichment or nearness to the bait. Other partners may have been found. For some of these results: No binding means not detected with the bait. For some of these results: Sequences can lack the tags named with a protein.

The first assay concerns the target Cul5 with a C terminal HA-tag (mouse) (UniProt Q9D5V5). Put plainly: affinity purification with mass spectrometry.
Settings: not given
As to “Cd28 (from UniProt P31041 20-218) (receptor)”, the binding result is recorded as “binds”.
With Pcmtd2 (from UniProt Q8BHD8 1-359), the binding result is given as “binds”.
For Ifitm3 (from UniProt Q9CQW9 1-137), the binding entry is “binds”.
Still for that read-out and setting: with B1 the entry was “binds”; with B2, “binds”.

In a further assay the target is T1, Cul5 with a C terminal HA-tag (mouse), …. The experiment in a line: affinity purification with mass spectrometry. The settings on record: remark: other sources report otherwise.
For B3, the binding entry is listed as “no binding”.
Still for that read-out and setting: as for B4, the entry is “no binding”.

For the origin of these results see article doi:10.1101/2022.11.16.516824.
